Results taken from PMC4801368, “Functional and Biochemical Characterization of Alvinella pompejana Cys-Loop Receptor Homologues” (PLoS ONE, 2016).

The compounds below were run on Alpo6-eGFP (assay: FSEC-based thermostability assay (FSEC-TS) of purified Alpo6-eGFP with ligands). Settings: Alpo6-eGFP purified in presence of ligand (1 mM taurine, 30 mM GABA or 100 mM glycine), heated to 65°C during 10 min vs 4°C.
Design: species or system Alvinella pompejana

| SMILES | effect on thermal stability (fluorescent signal, oligomeric peak height) |
| --- | --- |
| NCCCC(=O)O [GABA, γ-aminobutyric acid] | did not exert these stabilizing effects |
| NCC(=O)O [glycine] | no loss of fluorescent signal |
| NCCS(=O)(=O)O [taurine] | did not exert these stabilizing effects |
